Earlier results in patent US6620853B1, “Methods and compositions for prevention and treatment of restenosis with non-steroidal anti-inflammatory drugs” (Mount Sinai School of Medicine, priority 1998, dated 2003).

Tested on: HT-29 human colon adenocarcinoma cells
Details: cited from earlier work

## COc1ccc2cc([C@H](C)C(=O)O)ccc2c1 [naproxen]
  morphology of HT-29 cells: altered morphology
  proliferation of HT-29 cells: reduced proliferation
